In patent US5932772A, “Separation processes” (Union Carbide Chemicals & Plastics Technology Corporation, priority 1998, dated 1999):

Experiments:
[1] = Hydroformylation of olefin with rhodium-ligand catalyst (initial rate, N/I)
[2] = Rhodium content of nonpolar and polar phases after hydroformylation and phase separation
[3] = acetonitrile, 1-dodecene, 90° C (Table E)
[4] = acetonitrile, 1-dodecene, 90° C, after hexane (Table E)
[5] = DMSO, 1-decene, 90° C, after hexane
[6] = DMSO, 1-tetradecene, 90° C, after hexane
[7] = acetonitrile, 1-dodecene, 90° C (Table F)
[8] = 3-methyl-2-oxazolidinone, 1-dodecene, 90° C
[9] = 3-methyl-2-oxazolidinone, 1-hexadecene, 90° C
[10] = DMF, 1-tetradecene, 90° C, 5 psi pressure drop
[11] = acetonitrile, 1-dodecene, 95° C, 10 psi hydrogen + 60 psi syn gas
[12] = acetonitrile, 1-dodecene, 100° C, 20 psi hydrogen + 40 psi syn gas
[13] = acetonitrile, 1-dodecene, 100° C, 80 psi 1:1 syn gas
[14] = acetonitrile, 1-hexadecene, 90° C
[15] = acetonitrile, 1-tetradecene, 90° C (Table E)
[16] = acetonitrile, 1-tetradecene, 90° C (Table F)
[17] = adiponitrile, 1-dodecene, 90° C
[18] = adiponitrile, 1-dodecene, 90° C (Table G)
[19] = epsilon caprolactone, 1-dodecene, 90° C
[20] = 3-methyl-2-oxazolidinone, 1-hexadecene, 90° C, after hexane
[21] = DMF, 1-tetradecene, 90° C, after hexane
[22] = acetonitrile, 1-tetradecene, 90° C, after hexane
[23] = adiponitrile, 1-dodecene, 90° C, after hexane
[24] = sulfolane, 1-hexadecene, 90° C, after hexane
[25] = DMF, 1-tetradecene, 100° C, after hexane

In the case of `N#CCCP(CCC#N)CCC#N` [Ligand F], the “Initial Rate” value [1, 3] is reported as 24 s, the N/I [1, 3] is reported as 3 and the “Rh in nonpolar phase” value [2, 4] is reported as 3,000 ppb.
With `O=P(CP(c1ccccc1)c1ccccc1)(c1ccccc1)c1ccccc1` [Ligand E] the “Initial Rate” value ([1]; DMSO, 1-decene, 90° C) was 33 s, the “N/I in the nonpolar phase” value ([1]; DMSO, 1-decene, 90° C) was 2.5 and the “N/I in the polar phase” value ([1]; DMSO, 1-decene, 90° C) was 2.5. For the same compound, the “Rh in nonpolar phase” value [2, 5] was 763 ppb and the “Rh in the polar phase” value [2, 5] was 544 ppm.
With `c1ccc(P(c2ccccc2)c2ccccc2)cc1` [TPP, triphenylphosphine, reference compound] the “Initial Rate” value ([1]; DMSO, 1-tetradecene, 90° C) was 20 s, the “N/I in the polar phase” value ([1]; DMSO, 1-tetradecene, 90° C) was 7 and the “N/I, first value of the pair (no nonpolar-phase mark)” value ([1]; DMSO, 1-tetradecene, 90° C) was 7. The “Initial Rate” value [1, 3] was 14 s, the N/I [1, 3] was 5 and the “Rh in nonpolar phase” value [2, 6] was 44,000 ppb. The “Rh in the polar phase” value [2, 6] was 220 ppm and the “Rh in nonpolar phase” value [2, 4] was 75,000 ppb.
With `CC1(C)c2cccc(P(c3cccc(C#N)c3)c3cccc(C#N)c3)c2Oc2c(P(c3cccc(C#N)c3)c3cccc(C#N)c3)cccc21` [Ligand C] the “Initial Rate” value [1, 7] was 320 s, the N/I [1, 7] was 48 and the “Rh in non-polar phase after 3 extractions with acetonitrile” value (shortened to “Rh in non-polar phase”) [2, 7] was 1,200 ppb. For the same compound, the Rhodium [2, 7] was 300 ppm.
In the case of `N#Cc1ccc(P(c2ccc(C#N)cc2)c2ccc(C#N)cc2)cc1` [Ligand A], the “Initial Rate” value [1, 8] is reported as 140 s, the “N/I in the nonpolar phase” value [1, 8] is reported as 7.7 and the “N/I in the polar phase” value [1, 8] is reported as 7.1. For the same compound, the “Initial Rate” value [1, 9] was 390 s, the “N/I in the nonpolar phase” value [1, 9] was 8 and the “N/I in the polar phase” value [1, 9] was 19. For the same compound, the “Initial Rate” value ([1]; DMF, 1-dodecene, 90° C) was 48 s, the N/I ([1]; DMF, 1-dodecene, 90° C) was 6.4 and the N/I ([1]; DMF, 1-tetradecene, 90° C) was 7.5. The “Initial Rate” value [1, 10] was 39 s, the “Initial Rate” value ([1]; DMSO, 1-dodecene, 90° C) was 140 s and the “N/I in the nonpolar phase” value ([1]; DMSO, 1-dodecene, 90° C) was 7.9. The “N/I in the polar phase” value ([1]; DMSO, 1-dodecene, 90° C) was 7.3, the “Initial Rate” value ([1]; DMSO, 1-tetradecene, 90° C) was 270 s and the “N/I in the polar phase” value ([1]; DMSO, 1-tetradecene, 90° C) was 20. The “N/I, first value of the pair (no nonpolar-phase mark)” value ([1]; DMSO, 1-tetradecene, 90° C) was 8, the “Initial Rate” value ([1]; acetonitrile, 1-decene, 90° C) was 39 s and the N/I ([1]; acetonitrile, 1-decene, 90° C) was 7.7. The “Initial Rate” value [1, 7] was 51 s, the N/I [1, 7] was 7.5 and the “Initial Rate” value [1, 11] was 55 s. The N/I [1, 11] was 15, the “Initial Rate” value [1, 12] was 120 s and the N/I [1, 12] was 14. For the same compound, the “Initial Rate” value [1, 13] was 60 s, the N/I [1, 13] was 10 and the “Initial Rate” value [1, 14] was 77 s. The N/I [1, 14] was 7.8, the “Initial Rate” value [1, 15] was 1600 s and the N/I [1, 15] was 8.6. The “Initial Rate” value [1, 16] was 51 s, the N/I [1, 16] was 7.4 and the “Initial Rate” value [1, 17] was 950 s. The “N/I in the nonpolar phase” value [1, 17] was 15, the “N/I in the polar phase” value [1, 17] was 36 and the “Initial Rate” value [1, 18] was 260 s. For the same compound, the “N/I in the nonpolar phase” value [1, 18] was 10.9, the “N/I in the polar phase” value [1, 18] was 11.7 and the “Initial Rate” value [1, 19] was 51 s. The N/I [1, 19] was 6.6, the “Initial Rate” value ([1]; sulfolane, 1-hexadecene, 90° C) was 260 s and the “N/I in the nonpolar phase” value ([1]; sulfolane, 1-hexadecene, 90° C) was 14. The “N/I in the polar phase” value ([1]; sulfolane, 1-hexadecene, 90° C) was 11, the “Rhodium in the polar phase” value [2, 8] was 306 ppm and the “Rh in product phase” value ([2]; 3-methyl-2-oxazolidinone, 1-dodecene, 90° C, ICP) was 6,000 ppb. For the same compound, the “Rh in nonpolar phase” value [2, 20] was 39 ppb, the “Rh in the polar phase” value [2, 20] was 324 ppm and the “Rh in non-polar phase” value ([2]; DMF, 1-dodecene, 90° C) was 55 ppb. The Rhodium ([2]; DMF, 1-dodecene, 90° C) was 390 ppm, the “Rh in nonpolar phase” value [2, 21] was 241 ppb and the “Rh in the polar phase” value [2, 21] was 385 ppm. The “Rh in product phase” value ([2]; DMSO, 1-dodecene, 90° C, ICP) was 7,000 ppb, the “Rh in nonpolar phase” value [2, 6] was 86 ppb and the “Rh in the polar phase” value [2, 6] was 341 ppm. The “Rh in non-polar phase” value ([2]; acetonitrile, 1-decene, 90° C) was 24 ppb, the “Rh in non-polar phase” value [2, 7] was 287 ppb and the Rhodium [2, 7] was 311 ppm. For the same compound, the “Rh in nonpolar phase” value [2, 11] was 164 ppb, the “Rh in the polar phase” value [2, 11] was 321 ppm and the “Rh in nonpolar phase” value [2, 12] was 277 ppb. The “Rh in the polar phase” value [2, 12] was 347 ppm, the “Rh in nonpolar phase” value [2, 13] was 359 ppb and the “Rh in the polar phase” value [2, 13] was 344 ppm. The “Rh in non-polar phase” value [2, 14] was 427 ppb, the Rhodium [2, 14] was 343 ppm and the “Rh in non-polar phase” value [2, 16] was 158 ppb. For the same compound, the Rhodium [2, 16] was 324 ppm, the “Rh in nonpolar phase” value [2, 22] was 404 ppb and the “Rh in the polar phase” value [2, 22] was 214 ppm. For the same compound, the “Rh in product phase” value ([2]; adiponitrile, 1-dodecene, 90° C, ICP (Table G)) was 9,000 ppb, the “Rh in nonpolar phase” value [2, 23] was 329 ppb and the “Rh in the polar phase” value [2, 23] was 343 ppm. For the same compound, the “Rh in non-polar phase” value [2, 19] was 114 ppb, the “Rh in nonpolar phase” value [2, 24] was 494 ppb and the “Rh in the polar phase” value [2, 24] was 355 ppm.
In the case of `O=P(CCP(c1ccccc1)c1ccccc1)(c1ccccc1)c1ccccc1` [Ligand D], the “Initial Rate” value ([1]; DMF, 1-tetradecene, 100° C) is reported as 45 s, the N/I ([1]; DMF, 1-tetradecene, 100° C) is reported as 5.5 and the “Rh in nonpolar phase” value [2, 25] is reported as 759 ppb. For the same compound, the “Rh in the polar phase” value [2, 25] was 320 ppm.
In the case of `COc1cccc(P(c2cccc(OC)c2)c2cccc(OC)c2)c1` [Ligand H], the “Initial Rate” value [1, 3] is reported as 20 s, the N/I [1, 3] is reported as 5 and the “Rh in nonpolar phase” value [2, 4] is reported as 20,000 ppb. The “Rh in the polar phase” value [2, 4] was 226 ppm.
In the case of `COc1ccc(P(c2ccc(OC)cc2)c2ccc(OC)cc2)cc1` [Ligand G], the “Initial Rate” value [1, 3] is reported as 420 s, the N/I [1, 3] is reported as 4.4 and the “Rh in nonpolar phase” value [2, 4] is reported as 6,000 ppb. The “Rh in the polar phase” value [2, 4] was 236 ppm.
In the case of `N#Cc1cccc(P(c2cccc(C#N)c2)c2cccc(C#N)c2)c1` [Ligand B], the “Initial Rate” value [1, 3] is reported as 30 s, the N/I [1, 3] is reported as 8 and the “Initial Rate” value [1, 11] is reported as 55 s. The N/I [1, 11] was 10.5, the “Initial Rate” value [1, 12] was 95 s and the N/I [1, 12] was 8. For the same compound, the “Rh in nonpolar phase” value [2, 4] was 425 ppb, the “Rh in the polar phase” value [2, 4] was 273 ppm and the “Rh in nonpolar phase” value [2, 11] was 474 ppb. The “Rh in the polar phase” value [2, 11] was 345 ppm, the “Rh in nonpolar phase” value [2, 12] was 134 ppb and the “Rh in the polar phase” value [2, 12] was 252 ppm.
For `c1ccc(P(c2ccccc2)C2CCCCC2)cc1` [CHDPP, cyclohexyldiphenylphosphine, reference compound], the N/I ([1]; DMF, 1-tetradecene, 90° C) was 3, the “Initial Rate” value [1, 10] was 23 s and the “Rh in nonpolar phase” value [2, 21] was 79,000 ppb. For the same compound, the “Rh in the polar phase” value [2, 21] was 226 ppm.
